Results as given in the supplement of paper PMC6078165.
Values are relative to the signal before dosing, not to a vehicle control; the signal also falls without drug.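 Fibroblast labels name human fibroblasts: mostly primary ones from tissues such as uterus (C12385, HUF), lung (H6013), bone (Hs27A), adrenal (HADF) and skin (WS1), plus mammary HMF and breast cancer-associated Hs343T. The cancer cells are basal-like or mesenchymal-like triple-negative breast cancer lines. The paper calls a changed response a hit when it shifts by more than 3x the replicate standard deviation. The tissue of the other fibroblasts is not given here.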

System: Hs578T
Test: relative JC-1 red fluorescence (viability) vs pre-drug, coculture with fibroblast (fraction); higher = more viable cancer cells
Conditions: 1 µM
Description: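 JC-1 labelled TNBC cells cocultured 1:1 (1,500 cells each) with CellTrace Violet stained primary or stromal fibroblasts in 384-well plates in FluoroBrite medium, treated with one of 42 anticancer drugs at 0.1, 1, 10 or 100 uM. JC-1 red fluorescence (mitochondrial integrity in cancer cells only) was read by plate reader every 8 h for 72 h. Values are normalised to each well's pre-drug value. The stock of one drug was tenfold lower, so its dose labels may be too high.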

CN(C)CCOc1ccc(/C(=C(/CCCl)c2ccccc2)c2ccccc2)cc1 [Toremifene]
Conditions | relative JC-1 red fluorescence
8 h | 0.9254
16 h | 0.849
24 h | 0.792
32 h | 0.751
40 h | 0.691
48 h | 0.645
56 h | 0.601
64 h | 0.558
72 h | 0.532

relative JC-1 red fluorescence
Conditions | 8 h | 16 h | 24 h | 32 h | 40 h | 48 h | 56 h | 64 h | 72 h
coculture fibroblast: C12385 | 0.853 | 0.763 | 0.7079 | 0.63 | 0.5652 | 0.531 | 0.5051 | 0.488 | 0.478
coculture fibroblast: H6013 | 0.9068 | 0.854 | 0.822 | 0.7997 | 0.763 | 0.74 | 0.7236 | 0.7089 | 0.6756
coculture fibroblast: H6019 | 0.8045 | 0.722 | 0.673 | 0.579 | 0.531 | 0.493 | 0.451 | 0.427 | 0.396
coculture fibroblast: H6076 | 0.917 | 0.848 | 0.81136 | 0.7856 | 0.748 | 0.744 | 0.713 | 0.712 | 0.709
coculture fibroblast: H6231 | 0.898 | 0.7817 | 0.738 | 0.858 | 0.822 | 0.813 | 0.772 | 0.758 | 0.764
coculture fibroblast: HADF | 0.9257 | 0.8821 | 0.845 | 0.813 | 0.777 | 0.762 | 0.734 | 0.726 | 0.706
coculture fibroblast: HCFa | 0.887 | 0.842 | 0.81 | 0.761 | 0.687 | 0.657 | 0.614 | 0.587 | 0.539
coculture fibroblast: HCPF | 0.905 | 0.815 | 0.7816 | 0.778 | 0.718 | 0.697 | 0.682 | 0.641 | 0.632
coculture fibroblast: HHSteC | 0.934 | 0.859 | 0.813 | 0.766 | 0.709 | 0.672 | 0.638 | 0.607 | 0.561
coculture fibroblast: HMF | 0.916 | 0.869 | 0.85 | 0.857 | 0.815 | 0.802 | 0.77 | 0.767 | 0.754
coculture fibroblast: HPFa | 0.929 | 0.883 | 0.784 | 0.723 | 0.655 | 0.612 | 0.56 | 0.529 | 0.476
coculture fibroblast: HUF | 0.8817 | 0.7974 | 0.74 | 0.631 | 0.562 | 0.514 | 0.472 | 0.451 | 0.434
coculture fibroblast: Hs27A | 0.9152 | 0.901 | 0.857 | 0.8445 | 0.799 | 0.789 | 0.766 | 0.769 | 0.723
coculture fibroblast: Hs343T | 0.93133 | 0.836 | 0.8 | 0.807 | 0.748 | 0.731 | 0.69 | 0.671 | 0.665
coculture fibroblast: WS1 | 0.835 | 0.736 | 0.678 | 0.601 | 0.548 | 0.533 | 0.504 | 0.4909 | 0.4891
